Read-outs that look alike come from different tables or passages of the source. At least one structure is not confirmed: it was looked up by name or label, or the drawing left a doubt.
Assays:
IRE1α* = target: T1, IRE1α* (Homo sapiens, UniProt O75460); experiment: IRE1α* autophosphorylation kinase assay in vitro; type: biochemical
T1 construct: human IRE1α (residues 469-977, IRE1α*); made in house; host or cells: SF9 insect cells, Bac-to-Bac baculovirus

Protein sequences, listed by entry. Tags and fused reporters are not part of them. Residues count along the entry.
UniProt O75460, 469-977: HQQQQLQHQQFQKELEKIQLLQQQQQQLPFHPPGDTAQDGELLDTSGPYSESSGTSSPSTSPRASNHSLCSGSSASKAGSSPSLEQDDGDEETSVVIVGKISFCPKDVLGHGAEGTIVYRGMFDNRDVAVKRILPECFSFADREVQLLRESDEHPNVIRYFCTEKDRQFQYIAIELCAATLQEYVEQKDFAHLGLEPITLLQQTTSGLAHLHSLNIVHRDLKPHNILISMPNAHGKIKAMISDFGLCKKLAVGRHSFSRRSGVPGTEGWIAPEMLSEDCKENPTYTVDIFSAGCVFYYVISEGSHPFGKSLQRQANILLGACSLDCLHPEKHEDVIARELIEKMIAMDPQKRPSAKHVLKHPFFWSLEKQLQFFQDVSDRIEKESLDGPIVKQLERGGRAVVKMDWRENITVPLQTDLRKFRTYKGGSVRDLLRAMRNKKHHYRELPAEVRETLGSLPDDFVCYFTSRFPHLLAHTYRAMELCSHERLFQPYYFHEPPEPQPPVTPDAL

dP-IRE1α* = target: T2, dP-IRE1α* (Homo sapiens, UniProt O75460); experiment: XBP1 RNA minisubstrate RNase assay with dephosphorylated IRE1α*; type: biochemical
T2 construct: human IRE1α (residues 469-977, IRE1α*); made in house; host or cells: SF9 insect cells, then λ-phosphatase (NEB) treatment
Description: Reactions were quenched by addition of 4 M urea at different time points and then were subjected to urea 6% PAGE analysis.

endogenous IRE1α [1] = experiment: XBP1 mRNA splicing in INS-1 cells under ER stress; type: cell-based, rat; conditions: thapsigargin (Tg) 6 nM
Protocol: (§1) FIGS. 5A-5E. […] (FIG. 5C) EtBr-stained agarose gel of XBP1 complementary DNA (cDNA) amplicons from the INS-1 cells described in (B).
(§2) To further explore how IRE1α modulators affect the kinase and RNase activities of endogenous IRE1α under ER stress, in vivo studies using INS-1 rat insulinoma cell lines, which are derived from insulin-producing pancreatic β-cell tumors and contain large well-developed ERs, were conducted.

endogenous IRE1α [2] = experiment: IRE1α auto-phosphorylation immunoblot in INS-1 cells under ER stress; type: cell-based, rat; conditions: ER stress (Tg)
Protocol: as §1, §2
For protein analysis, cells were lysed in M-PER buffer (Thermo Scientific) plus complete EDTA-free protease inhibitor (Roche) and phosphatase inhibitor cocktail (Sigma). The concentration of samples was determined using BCA Protein Assay (Thermo). […] Gels were run using MES buffer and transferred onto nitrocellulose transfer membrane using an XCell II™ Blot Module. Blocking, antibody incubation, and washing were done in PBS or TBS with 0.05% Tween-20 (v/v) and 5% (w/v) non-fat dry milk or BSA, or blocking buffer (Licor-Odyssey). […] Antibody binding was detected by using near-infrared-dye-conjugated secondary antibodies (Licor) on the LI-COR Odyssey scanner or visualized by capturing on a CL-XPosure film using ECL SuperSignal West Dura Extended Duration Substrate (both from Thermo Scientific).

yeast and murine IRE1α = conditions: cited from earlier work

SMILES: CCN(CC)CCNC(=O)c1c(C)[nH]c(/C=C2\C(=O)Nc3ccc(F)cc32)c1C [sunitinib]
- IRE1α* autophosphorylation, effect in words (IRE1α*): dose-dependent inhibitor of the autophosphorylation activity of IRE1α*
- IRE1α* autophosphorylation, effect in words (IRE1α*; listed as Sunitinib): inhibits IRE1α* autophosphorylation
- RNase activity of dP-IRE1α*, effect in words (dP-IRE1α*): activates the RNase activity of dP-IRE1α*
- RNase activity of dP-IRE1α*, effect in words (dP-IRE1α*; listed as Sunitinib): activates the RNase domain
- XBP1 mRNA splicing (IRE1α RNase activity) in INS-1 cells (endogenous IRE1α [1]): has no effect on the RNase activity of this enzyme
- endogenous IRE1α auto-phosphorylation in INS-1 cells (endogenous IRE1α [2]): partially inhibit the kinase activity of IRE1α
- RNase of yeast and murine IRE1α (yeast and murine IRE1α): directly activate the RNase of yeast and murine IRE1α

Source: US20170165259A1, “COMBINED MODULATION OF IRE1” (THE REGENTS OF THE UNIVERSITY OF CALIFORNIA, priority 2014, published 2017)
